Test results published in PMC8456201.
Results are given in words; binding and its absence hold for the method and conditions named. Some binding calls cover weakened binding; strength is not graded here.

Biological target: insect cell purified His-AKT1, P31749
Experiment: pull-down; in vitro binding of insect cell purified PDK1 and His-AKT1; copper (5 uM) and TTM (20 uM) added as indicated; His-AKT1 pulled down on Ni-NTA beads; washed four times with NETN buffer with 500 mM NaCl; immunoblot; both purified
Settings: remark: other sources report otherwise

- binding: binds
B1: insect cell purified PDK1, O15530 1-556 (enzyme)
chain: MARTTSQLYDAVPIQSSVVLCSCPSPSMVRTQTESSTPPGIPGGSRQGPAMDGTAAEPRPGAGSLQHAQPPPQPRKKRPEDFKFGKILGEGSFSTVVLARELATSREYAIKILEKRHIIKENKVPYVTRERDVMSRLDHPFFVKLYFTFQDDEKLYFGLSYAKNGELLKYIRKIGSFDETCTRFYTAEIVSALEYLHGKGIIHRDLKPENILLNEDMHIQITDFGTAKVLSPESKQARANSFVGTAQYVSPELLTEKSACKSSDLWALGCIIYQLVAGLPPFRAGNEYLIFQKIIKLEYDFPEKFFPKARDLVEKLLVLDATKRLGCEEMEGYGPLKAHPFFESVTWENLHQQTPPKLTAYLPAMSEDDEDCYGNYDNLLSQFGCMQVSSSSSSHSLSASDTGLPQRSGSNIEQYIHDLDSNSFELDLQFSEDEKRLLLEKQAGGNPWHQFVENNLILKMGPVDKRKGLFARRRQLLLTEGPHLYYVDPVNKVLKGEIPWSQELRPEAKNFKTFFVHTPNRTYYLMDPSGNAHKWCRKIQEVWRQRYQSHPDAAVQ
